Assay results published in the supplement of paper PMC12819154, “High-throughput peptide-centric local stability assay extends protein–ligand identification to membrane proteins, tissues and bacteria” (Nature Structural & Molecular Biology, 2025).
The other results are listed elsewhere or left out. Small differences around the control level are noise.

The chains behind the UniProt entries cited, without tags or fusion partners. Where a name states a change or a piece, a line headed by the entry shows the natural chain unless it says otherwise.
UniProt P05784: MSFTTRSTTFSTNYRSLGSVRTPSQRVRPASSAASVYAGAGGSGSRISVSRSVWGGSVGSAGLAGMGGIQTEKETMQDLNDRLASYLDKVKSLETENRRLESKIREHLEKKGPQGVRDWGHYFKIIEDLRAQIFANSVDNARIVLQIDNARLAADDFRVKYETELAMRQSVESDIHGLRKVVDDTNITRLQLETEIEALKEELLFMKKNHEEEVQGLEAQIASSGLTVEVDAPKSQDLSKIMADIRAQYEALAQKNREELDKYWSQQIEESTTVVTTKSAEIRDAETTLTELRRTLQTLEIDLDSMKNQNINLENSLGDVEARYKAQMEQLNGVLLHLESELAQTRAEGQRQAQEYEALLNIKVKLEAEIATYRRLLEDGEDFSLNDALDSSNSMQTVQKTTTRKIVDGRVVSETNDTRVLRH
UniProt P0C090: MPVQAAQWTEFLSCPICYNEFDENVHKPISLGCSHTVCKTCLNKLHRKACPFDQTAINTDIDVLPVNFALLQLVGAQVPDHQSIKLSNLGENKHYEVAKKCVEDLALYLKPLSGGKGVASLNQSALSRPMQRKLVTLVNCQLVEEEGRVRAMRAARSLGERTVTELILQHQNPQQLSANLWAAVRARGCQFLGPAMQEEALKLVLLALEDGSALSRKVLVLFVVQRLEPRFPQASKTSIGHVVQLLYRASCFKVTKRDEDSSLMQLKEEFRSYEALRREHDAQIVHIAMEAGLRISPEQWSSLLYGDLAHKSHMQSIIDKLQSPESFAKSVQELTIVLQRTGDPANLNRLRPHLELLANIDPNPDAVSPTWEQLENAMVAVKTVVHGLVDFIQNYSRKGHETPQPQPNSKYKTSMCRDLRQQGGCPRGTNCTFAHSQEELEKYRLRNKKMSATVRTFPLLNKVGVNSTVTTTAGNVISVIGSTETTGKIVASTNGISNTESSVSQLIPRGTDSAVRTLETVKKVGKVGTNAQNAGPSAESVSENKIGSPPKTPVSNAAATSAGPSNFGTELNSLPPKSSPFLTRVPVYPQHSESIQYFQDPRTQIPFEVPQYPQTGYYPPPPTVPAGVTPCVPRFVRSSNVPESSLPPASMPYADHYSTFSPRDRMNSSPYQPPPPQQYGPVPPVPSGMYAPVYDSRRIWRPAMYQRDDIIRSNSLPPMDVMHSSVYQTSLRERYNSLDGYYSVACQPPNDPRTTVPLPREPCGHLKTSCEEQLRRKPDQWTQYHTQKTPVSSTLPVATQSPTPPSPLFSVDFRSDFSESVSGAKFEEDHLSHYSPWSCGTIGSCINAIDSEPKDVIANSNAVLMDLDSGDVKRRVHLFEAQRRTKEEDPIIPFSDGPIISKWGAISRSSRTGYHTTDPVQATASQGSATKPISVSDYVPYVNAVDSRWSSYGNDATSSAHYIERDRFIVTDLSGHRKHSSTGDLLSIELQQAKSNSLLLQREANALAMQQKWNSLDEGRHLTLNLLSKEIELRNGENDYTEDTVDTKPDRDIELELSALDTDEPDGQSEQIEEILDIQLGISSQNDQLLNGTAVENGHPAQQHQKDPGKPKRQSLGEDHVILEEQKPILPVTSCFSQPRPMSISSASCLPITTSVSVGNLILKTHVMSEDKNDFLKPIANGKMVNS
UniProt P07742, whole entry: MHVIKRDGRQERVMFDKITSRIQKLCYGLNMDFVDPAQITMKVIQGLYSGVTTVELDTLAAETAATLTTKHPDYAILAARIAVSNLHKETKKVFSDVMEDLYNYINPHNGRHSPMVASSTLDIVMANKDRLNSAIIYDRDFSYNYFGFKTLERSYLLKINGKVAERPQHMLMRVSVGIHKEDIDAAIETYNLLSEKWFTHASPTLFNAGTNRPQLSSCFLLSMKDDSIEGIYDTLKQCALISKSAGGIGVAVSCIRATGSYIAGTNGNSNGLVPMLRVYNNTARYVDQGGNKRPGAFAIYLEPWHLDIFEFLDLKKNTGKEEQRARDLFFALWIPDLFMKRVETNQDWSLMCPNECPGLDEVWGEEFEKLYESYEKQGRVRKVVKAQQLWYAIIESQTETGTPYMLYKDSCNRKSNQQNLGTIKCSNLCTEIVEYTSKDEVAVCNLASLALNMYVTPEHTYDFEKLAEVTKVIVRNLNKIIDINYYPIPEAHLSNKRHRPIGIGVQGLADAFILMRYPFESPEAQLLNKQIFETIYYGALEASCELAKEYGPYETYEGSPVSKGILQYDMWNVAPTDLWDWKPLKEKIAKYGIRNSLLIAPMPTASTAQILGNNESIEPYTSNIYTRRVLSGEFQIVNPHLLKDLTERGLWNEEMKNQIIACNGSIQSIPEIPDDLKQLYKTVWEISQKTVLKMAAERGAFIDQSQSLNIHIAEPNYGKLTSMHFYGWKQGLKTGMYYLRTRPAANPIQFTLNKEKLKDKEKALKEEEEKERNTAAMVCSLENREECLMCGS
UniProt P11157, whole entry: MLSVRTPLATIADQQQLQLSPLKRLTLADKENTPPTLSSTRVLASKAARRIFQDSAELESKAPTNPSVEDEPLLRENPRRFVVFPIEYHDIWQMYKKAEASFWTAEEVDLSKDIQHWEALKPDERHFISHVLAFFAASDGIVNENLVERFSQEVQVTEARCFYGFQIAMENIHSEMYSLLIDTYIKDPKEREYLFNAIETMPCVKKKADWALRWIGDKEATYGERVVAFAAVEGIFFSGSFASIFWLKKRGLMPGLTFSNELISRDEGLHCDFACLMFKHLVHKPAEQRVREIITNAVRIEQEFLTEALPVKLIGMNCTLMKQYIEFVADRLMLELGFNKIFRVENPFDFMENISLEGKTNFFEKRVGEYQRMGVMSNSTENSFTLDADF
UniProt P0C7T6: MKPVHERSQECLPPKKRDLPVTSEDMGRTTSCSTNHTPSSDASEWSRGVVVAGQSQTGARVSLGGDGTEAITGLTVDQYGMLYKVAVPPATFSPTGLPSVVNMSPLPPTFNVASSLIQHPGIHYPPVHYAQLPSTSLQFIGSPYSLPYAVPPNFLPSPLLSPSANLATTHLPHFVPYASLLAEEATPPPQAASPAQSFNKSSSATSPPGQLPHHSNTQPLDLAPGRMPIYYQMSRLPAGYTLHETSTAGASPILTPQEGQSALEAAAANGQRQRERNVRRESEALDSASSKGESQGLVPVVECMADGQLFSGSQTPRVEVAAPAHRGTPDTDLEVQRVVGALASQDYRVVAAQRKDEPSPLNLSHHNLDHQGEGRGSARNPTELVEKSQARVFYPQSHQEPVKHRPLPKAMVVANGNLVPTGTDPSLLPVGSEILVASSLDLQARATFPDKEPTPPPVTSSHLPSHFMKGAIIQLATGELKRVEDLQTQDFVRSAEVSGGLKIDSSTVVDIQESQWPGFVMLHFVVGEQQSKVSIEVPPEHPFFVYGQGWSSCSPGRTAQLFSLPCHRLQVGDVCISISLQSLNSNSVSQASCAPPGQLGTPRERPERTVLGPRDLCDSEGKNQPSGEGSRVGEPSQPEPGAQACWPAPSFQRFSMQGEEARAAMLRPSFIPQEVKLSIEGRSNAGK
UniProt P13707: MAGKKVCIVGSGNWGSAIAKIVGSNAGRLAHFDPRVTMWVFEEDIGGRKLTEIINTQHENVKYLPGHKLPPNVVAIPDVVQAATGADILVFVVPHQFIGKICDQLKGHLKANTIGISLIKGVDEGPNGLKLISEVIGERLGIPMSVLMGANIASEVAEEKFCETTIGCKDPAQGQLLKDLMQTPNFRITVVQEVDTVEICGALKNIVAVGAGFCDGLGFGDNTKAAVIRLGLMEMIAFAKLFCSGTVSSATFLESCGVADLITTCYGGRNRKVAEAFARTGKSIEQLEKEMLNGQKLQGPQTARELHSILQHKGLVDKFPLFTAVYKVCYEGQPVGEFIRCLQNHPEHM
UniProt P12791: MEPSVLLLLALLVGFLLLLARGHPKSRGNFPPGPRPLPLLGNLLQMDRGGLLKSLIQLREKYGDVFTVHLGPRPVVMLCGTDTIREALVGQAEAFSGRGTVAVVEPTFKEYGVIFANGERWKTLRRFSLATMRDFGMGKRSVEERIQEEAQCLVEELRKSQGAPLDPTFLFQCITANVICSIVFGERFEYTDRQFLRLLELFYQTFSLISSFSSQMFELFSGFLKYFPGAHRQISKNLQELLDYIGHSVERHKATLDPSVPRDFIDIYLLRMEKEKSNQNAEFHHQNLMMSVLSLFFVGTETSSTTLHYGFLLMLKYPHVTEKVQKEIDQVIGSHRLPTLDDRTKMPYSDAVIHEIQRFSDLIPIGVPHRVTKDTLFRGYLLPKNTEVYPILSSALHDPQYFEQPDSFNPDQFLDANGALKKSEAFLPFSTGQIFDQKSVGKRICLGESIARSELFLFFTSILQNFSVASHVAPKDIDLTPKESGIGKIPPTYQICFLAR
UniProt P05366: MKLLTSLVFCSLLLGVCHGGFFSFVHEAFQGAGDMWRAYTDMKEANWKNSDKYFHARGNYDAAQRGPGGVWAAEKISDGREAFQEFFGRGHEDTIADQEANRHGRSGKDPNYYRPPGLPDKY
UniProt P03930: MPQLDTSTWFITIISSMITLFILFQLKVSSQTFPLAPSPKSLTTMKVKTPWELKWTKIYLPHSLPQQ
UniProt P10107: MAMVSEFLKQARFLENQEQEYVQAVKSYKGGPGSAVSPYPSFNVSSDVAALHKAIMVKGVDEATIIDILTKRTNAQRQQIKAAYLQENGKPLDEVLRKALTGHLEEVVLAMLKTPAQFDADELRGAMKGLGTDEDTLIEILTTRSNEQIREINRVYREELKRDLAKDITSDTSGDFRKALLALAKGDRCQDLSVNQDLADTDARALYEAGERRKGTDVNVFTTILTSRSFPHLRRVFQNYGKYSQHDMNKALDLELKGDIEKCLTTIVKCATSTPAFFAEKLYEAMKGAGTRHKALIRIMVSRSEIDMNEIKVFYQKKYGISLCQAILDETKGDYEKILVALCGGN
UniProt O89016: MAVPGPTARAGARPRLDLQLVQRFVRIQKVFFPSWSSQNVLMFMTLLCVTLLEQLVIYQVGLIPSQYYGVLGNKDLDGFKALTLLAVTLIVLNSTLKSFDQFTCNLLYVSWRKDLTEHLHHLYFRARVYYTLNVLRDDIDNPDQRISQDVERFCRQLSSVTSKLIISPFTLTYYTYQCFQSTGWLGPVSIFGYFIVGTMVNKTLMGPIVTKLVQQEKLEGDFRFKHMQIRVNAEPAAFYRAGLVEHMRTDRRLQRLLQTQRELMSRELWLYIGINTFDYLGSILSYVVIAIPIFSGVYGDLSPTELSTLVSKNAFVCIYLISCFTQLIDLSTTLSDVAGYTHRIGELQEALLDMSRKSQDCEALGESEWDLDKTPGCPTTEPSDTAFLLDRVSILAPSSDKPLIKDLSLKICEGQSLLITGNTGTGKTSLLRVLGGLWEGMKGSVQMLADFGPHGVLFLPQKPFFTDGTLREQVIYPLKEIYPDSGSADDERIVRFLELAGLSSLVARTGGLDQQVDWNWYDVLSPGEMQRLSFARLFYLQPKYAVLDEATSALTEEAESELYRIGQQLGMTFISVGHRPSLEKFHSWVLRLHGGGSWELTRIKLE

compound: CN[C@@H]1C[C@H]2O[C@@](C)([C@@H]1OC)n1c3ccccc3c3c4c(c5c6ccccc6n2c5c31)C(=O)NC4 [staurosporine]; test: log2 fold change of tryptic peptide abundance, ligand vs vehicle (limited proteolysis) (log2 ratio); higher = more trypsin-susceptible (destabilized); settings: ligand concentration: 20 uM; sample: mouse liver crude lysate; replicate design: treated separately

Target | log2 fold change
UniProt P05784 (peptide sequence: QAQEYEALLNIKVK, peptide start residue: 352) | 0.618
UniProt P0C090 (peptide sequence: KGHETPQPQPNSK, peptide start residue: 398) | -0.778
UniProt P07742 (peptide sequence: VMFDKITSR, peptide start residue: 13) | 0.329
UniProt P11157 (peptide sequence: TNFFEKR, peptide start residue: 360) | -0.101
UniProt P0C7T6 (peptide sequence: GAIIQLATGELK, peptide start residue: 470) | 0.362
UniProt P14069 (peptide sequence: LQDAEIAR, peptide start residue: 48) | -0.151
UniProt P13707 (peptide sequence: GVDEGPNGLK, peptide start residue: 121) | -0.313
UniProt P12791 (peptide sequence: ATLDPSVPR, peptide start residue: 254) | -0.099
UniProt P05366 (peptide sequence: GPGGVWAAEK, peptide start residue: 66) | 0.109
UniProt P03930 (peptide sequence: IYLPHSLPQQ, peptide start residue: 58) | -0.134
UniProt P10107 (peptide sequence: KGTDVNVFTTILTSR, peptide start residue: 214) | -0.19
UniProt O89016 (peptide sequence: LHGGGSWELTR, peptide start residue: 592) | 0.346
